# Measured values: PubChem BioAssay AID588590 (National Center for Advancing Translational Sciences (NCATS), 2011)
# Amino acid sequences for entries named in this document (tags omitted). A change or cut given only in a name is not applied to a line headed by its entry.
# UniProt Q9UNA4: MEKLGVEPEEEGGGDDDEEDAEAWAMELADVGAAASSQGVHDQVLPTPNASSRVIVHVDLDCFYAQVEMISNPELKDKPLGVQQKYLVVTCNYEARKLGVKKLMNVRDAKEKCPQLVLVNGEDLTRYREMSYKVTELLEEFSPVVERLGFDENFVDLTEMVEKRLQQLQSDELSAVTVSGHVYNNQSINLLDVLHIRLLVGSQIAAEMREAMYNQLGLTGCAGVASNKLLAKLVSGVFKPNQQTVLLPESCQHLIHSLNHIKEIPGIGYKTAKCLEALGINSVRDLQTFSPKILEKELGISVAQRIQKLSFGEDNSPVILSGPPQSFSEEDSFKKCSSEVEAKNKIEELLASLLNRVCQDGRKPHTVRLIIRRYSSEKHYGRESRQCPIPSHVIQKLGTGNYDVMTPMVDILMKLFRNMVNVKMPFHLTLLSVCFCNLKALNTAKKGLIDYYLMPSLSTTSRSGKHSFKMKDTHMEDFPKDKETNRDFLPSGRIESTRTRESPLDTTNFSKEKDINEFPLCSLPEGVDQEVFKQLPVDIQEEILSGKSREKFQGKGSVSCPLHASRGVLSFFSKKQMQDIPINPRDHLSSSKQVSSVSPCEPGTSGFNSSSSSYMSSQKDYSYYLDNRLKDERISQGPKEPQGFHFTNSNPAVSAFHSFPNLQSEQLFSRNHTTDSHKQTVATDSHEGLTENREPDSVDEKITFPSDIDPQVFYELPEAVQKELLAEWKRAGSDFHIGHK
# The campaign covered roughly 390,000 compounds. About 4,000 (1%) were called active. This list was built around the results that the source calls inconclusive (neither active nor inactive); the mix of calls is not that of the screen. The call rests on the fitted dose curve; in most records, active means well fitted inhibition curve with a large enough effect; inconclusive means small, poorly fitted or top-dose-only effect, or another doubt; inactive means no such curve, though single readings can be large or run the other way. Where the call is inconclusive, the potency comes from a doubtful curve fit.
# Target: DNA polymerase iota (Homo sapiens) (UniProt Q9UNA4)
# Test: qHTS for Inhibitors of Polymerase Iota
# Conditions: Pol iota fluorescent replication assay, 10 min; series mostly up to 115 µM
# Outline: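 Fluorescent replication assay read twice, at 0 min and 10 min after adding 50 nM (final) substrate. Enzyme (10 nM) and compounds were first incubated 15 min at room temperature; enzyme-free buffer wells were negative controls.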
# Potency means the concentration at half of the fitted maximal effect.
row,Structure (SMILES),Potency
1,O=[N+]([O-])c1ccc(O)c(C(C#Cc2ccccc2)N2CCOCC2)c1 (centres undefined),inactive
2,CCOC(=O)C1C(=O)C(C(C)=O)C(=O)CC1CC(C)SCC (centres undefined),"inconclusive: 100 µM [inhibitor, full curve, poor fit]"
3,CC(C)(C)NC(=O)CSC(=Nc1ccc(F)cc1)NC#N,"inconclusive: 25.1 µM [inhibitor, partial curve, poor fit]"
4,C=CC#CC[N+]1(CC#Cc2ccccc2)CCOCC1,"inconclusive: 22.4 µM [inhibitor, partial curve, poor fit]"
5,OC(C#Cc1ccccn1)c1cccs1 (centres undefined),"inconclusive: 12.6 µM [inhibitor, partial curve, poor fit]"
6,O=C(Cn1cnc([N+](=O)[O-])n1)c1ccc(O)c(O)c1,active: 7.08 µM
7,CC(=O)c1ccc(-c2ccc(C(=O)NCC(c3ccco3)N(C)C)o2)cc1 (centres undefined),"inconclusive: 12.6 µM [inhibitor, full curve]"
8,Nc1ncccc1C(=O)OCC(=O)NC1CCCCCC1,inactive
9,COc1ccc(C)cc1S(=O)(=O)N1CCN(c2cccc(Cl)c2)CC1,"inconclusive: 70.8 µM [inhibitor, partial curve, poor fit]"
10,O=C(NCCN1C(=O)S/C(=C\c2cccnc2)C1=O)C1=NN(c2ccccc2)C(=O)CC1,"inconclusive: 79.4 µM [inhibitor, partial curve]"
11,O=C(CC1SC(=O)NC1=O)Oc1ccc(/C=N/NC(=O)c2ccccc2O)cc1 (centres undefined),"inconclusive: 44.7 µM [inhibitor, partial curve, poor fit]"
12,COc1cc(/C=C/C(=O)c2ccc([N+](=O)[O-])o2)ccc1O,"inconclusive: 8.91 µM [inhibitor, full curve]"
13,COc1ccc(/C=C(/C(=O)Nc2ccccc2C(=O)NC(C)C)c2ccccc2)cc1,"inconclusive: 50.1 µM [inhibitor, partial curve, poor fit]"
14,Cc1nc2c(sc3nc4c(cc32)COC(C)(C)C4)c(=O)n1CC(=O)NCc1ccco1,"inconclusive: 17.8 µM [inhibitor, full curve]"
15,CC(Sc1nnc2c(n1)[nH]c1ccccc12)C(=O)N(C)C1CCCCC1 (centres undefined),inactive
16,C[n+]1ccccc1/C=C1\Sc2ccccc2N1CCO,inactive
17,CCn1c(C)nc2cc(C(=O)N/N=C/c3ccc(OC)c(O)c3)ccc21,"inconclusive: 44.7 µM [inhibitor, partial curve, poor fit]"
18,Cc1cc2nc(-c3ccc(SCC(=O)Nc4ccc5c(c4)OCCO5)nc3)[nH]c2cc1C,"inconclusive: 10 µM [inhibitor, partial curve, poor fit]"
19,O=C(COc1ccccc1)Nc1cc(Cl)ccc1Cl,"inconclusive: 39.8 µM [inhibitor, partial curve, poor fit]"
20,O=C(Cn1c(=S)nc2ccccn21)N1CCc2ccccc2C1,"inconclusive: 35.5 µM [inhibitor, single point]"
21,Cc1ccc(C)c(OCCC(=O)NCCc2ccc(Cl)cc2)c1,"inconclusive: 100 µM [inhibitor, partial curve, poor fit]"
22,O=C(CN1C(=O)C2C3C=CC(C3)C2C1=O)Nc1nc(-c2ccccn2)cs1 (centres undefined),"inconclusive: 8.91 µM [inhibitor, partial curve]"

# 5 compounds picked at random from the list so far, as already listed:
row,Structure (SMILES),Potency
9,COc1ccc(C)cc1S(=O)(=O)N1CCN(c2cccc(Cl)c2)CC1,"inconclusive: 70.8 µM [inhibitor, partial curve, poor fit]"
12,COc1cc(/C=C/C(=O)c2ccc([N+](=O)[O-])o2)ccc1O,"inconclusive: 8.91 µM [inhibitor, full curve]"
20,O=C(Cn1c(=S)nc2ccccn21)N1CCc2ccccc2C1,"inconclusive: 35.5 µM [inhibitor, single point]"
15,CC(Sc1nnc2c(n1)[nH]c1ccccc12)C(=O)N(C)C1CCCCC1 (centres undefined),inactive
11,O=C(CC1SC(=O)NC1=O)Oc1ccc(/C=N/NC(=O)c2ccccc2O)cc1 (centres undefined),"inconclusive: 44.7 µM [inhibitor, partial curve, poor fit]"

# More records follow:

row,Structure (SMILES),Potency
1,O=C1C(Nc2ccc(O)cc2)=C/C(=N/S(=O)(=O)c2cccs2)c2ccccc21,active: 6.31 µM
2,Cc1nnc(SCc2ccc(Cl)cc2)c2cc3occc3n12,inactive
3,COc1ccc(-c2cc(C(=O)NCc3ccco3)c3ccccc3n2)cc1,"inconclusive: 39.8 µM [inhibitor, partial curve, poor fit]"
4,CC(=O)OC(C)(C)/C=C/C(=O)[C@](C)(O)C1[C@H](O)C[C@@]2(C)C3CC=C4C(C=C(O[C@@H]5O[C@H](CO)[C@@H](O)[C@H](O)[C@H]5O)C(=O)C4(C)C)[C@]3(C)C(=O)C[C@]12C (some centres undefined),"inconclusive: 28.2 µM [inhibitor, partial curve, poor fit]"
5,Nc1ccc(C(=O)Nc2ccc3nc(-c4ccncc4)[nH]c3c2)cc1,"inconclusive: 50.1 µM [inhibitor, single point]"
6,COc1ccc(-c2cn3nc(N4CCCC(C(=O)Nc5ccc(C)c(C)c5)C4)sc3n2)cc1 (centres undefined),inactive
7,O=C(O)C1Nc2c(O)cccc2C2C=CCC12 (centres undefined),"inconclusive: 1.26 µM [inhibitor, full curve, poor fit]"
8,C(#CCN1CCOCC1)COCCCOC(c1ccccc1)c1ccccc1,"inconclusive: 79.4 µM [inhibitor, partial curve]"
9,CCOC(=O)c1cnc2ccc(C)cc2c1N(C)Cc1ccccc1,"inconclusive: 44.7 µM [inhibitor, full curve, poor fit]"
10,CCCn1cc(S(=O)(=O)c2cc(C)ccc2C)c(=O)c2cc(F)c(N3CCOCC3)cc21,"inconclusive: 100 µM [inhibitor, single point]"
11,CCn1c(SCc2nc3sc(C(=O)O)c(C)c3c(=O)[nH]2)nc2ccccc21,active: 2.82 µM
12,CC(NC(=S)NCc1ccc(F)cc1)C12CC3CC(CC(C3)C1)C2 (centres undefined),"inconclusive: 89.1 µM [inhibitor, single point]"
13,COC(=O)[C@@]1(Cc2ccccc2)[C@H]2C(=O)N(Cc3ccccc3)C(=O)[C@H]2[C@H]2CN=C(SCc3ccc(C)cc3)N21,"inconclusive: 17.8 µM [inhibitor, single point]"
14,CCOc1c(Cl)cc(Cl)cc1CNCCSc1nnnn1C,inactive
15,Cc1ccc(S(=O)(=O)N2CCN(c3nc(-n4cccn4)nc4ccccc34)CC2)cc1,"inconclusive: 11.2 µM [inhibitor, full curve]"
16,Cn1c(=O)c2c(nc(NCc3ccco3)n2C)n(C)c1=O,"inconclusive: 50.1 µM [inhibitor, partial curve]"
17,COC(=O)c1cc(S(=O)(=O)N2CCCCC2)c[nH]1,"inconclusive: 50.1 µM [inhibitor, partial curve, poor fit]"
18,O=C(CCCN1C(=O)/C(=C\c2cccs2)SC1=S)NNC(=O)c1cccnc1,"inconclusive: 50.1 µM [inhibitor, partial curve, poor fit]"
19,Cc1csc(NC(=O)CSc2ccccc2F)n1,"inconclusive: 15.8 µM [inhibitor, single point]"
20,CC(NC(=O)Cn1ncc(Cl)c(Cl)c1=O)C12CC3CC(CC(C3)C1)C2 (centres undefined),"inconclusive: 20 µM [inhibitor, full curve, poor fit]"
21,CN(C)CCCn1c(=S)[nH]c2ccccc2c1=O,inactive
22,COc1cc(/C=N/N2C(C)CCCC2C)cc(Br)c1O (centres undefined),inactive

row,Structure (SMILES),Potency
1,NC(=O)COC(=O)c1c2c(nc3ccccc13)CCC2,"inconclusive: 56.2 µM [inhibitor, single point]"
2,CC(=O)N1CCc2cc(N=NC3=C(O)CC(C)(C)CC3=O)ccc21,"inconclusive: 35.5 µM [inhibitor, single point]"
3,CC(C)Oc1ccc(S(=O)(=O)N2CCOCC2)cc1NC(=O)CN1C(=O)c2ccccc2C1=O,"inconclusive: 79.4 µM [inhibitor, partial curve, poor fit]"
4,CCN(CC)S(=O)(=O)c1cc(NS(=O)(=O)c2cccc(Cl)c2Cl)ccc1C,inactive
5,CC(C)OCCCNc1nc2c(cnn2C)c(=O)[nH]1,inactive
6,Cc1cc(C)c2nc(Nc3nc(-c4ccccc4)cc(=O)[nH]3)nc(C)c2c1,inactive
7,Cc1nc(Sc2nnnn2C2CC2)c2c(-c3ccccc3)csc2n1,inactive
8,O=C(NNC(=O)c1cc(-c2ccncc2)nc2ccccc12)c1ccccc1O,"inconclusive: 11.2 µM [inhibitor, partial curve, poor fit]"
9,Nc1ccc2[nH]c(=S)sc2c1,"inconclusive: 25.1 µM [inhibitor, partial curve, poor fit]"
10,O=C1/C(=C/c2ccncc2)SC(=S)N1Cc1ccccc1,"inconclusive: 39.8 µM [inhibitor, single point]"
11,O=C(NCC1COc2ccccc2O1)c1c[nH]c2ccc(S(=O)(=O)N3CCOCC3)cc2c1=O (centres undefined),"inconclusive: 11.2 µM [inhibitor, partial curve, poor fit]"
12,CCOc1ccc(-n2c(SCC(=O)N3CCc4ccccc43)nnc2-c2c[nH]c3ccccc23)cc1,"inconclusive: 2 µM [inhibitor, partial curve, poor fit]"
13,Cc1ccc(NC(=O)Nc2ccccc2C(N)=O)cc1,"inconclusive: 39.8 µM [inhibitor, partial curve, poor fit]"
14,Cc1ccc(CN2CCN(/N=C/c3ccc(O)c(O)c3)CC2)cc1,"inconclusive: 56.2 µM [inhibitor, partial curve, poor fit]"
15,NC(=S)NNc1ccc(Cl)c(Cl)c1,"inconclusive: 7.94 µM [inhibitor, partial curve, poor fit]"
16,c1ccc2c(c1)CCCN2,"inconclusive: 89.1 µM [inhibitor, single point]"
17,COc1ccc(-c2ccc(=O)n(CC(=O)Nc3ccc(N(C)C)cc3)n2)cc1,inactive
18,CCCS(=O)(=O)N1CCC(C(=O)NCc2ccco2)CC1,"inconclusive: 31.6 µM [inhibitor, partial curve, poor fit]"
19,COc1ccc2nc(C)cc(Nc3ccc(N4CCN(C)CC4)cc3)c2c1,"inconclusive: 12.6 µM [inhibitor, partial curve, poor fit]"
20,OCc1c[nH]c(=S)n1CCOc1cccc(C(F)(F)F)c1,"inconclusive: 63.1 µM [inhibitor, partial curve, poor fit]"
